Assay results reported in the supplement of paper PMC10849652.
Some of the results follow.

The chains behind the UniProt entries cited, without tags or fusion partners. Where a name states a change or a piece, a line headed by the entry shows the natural chain unless it says otherwise.
UniProt Q08426: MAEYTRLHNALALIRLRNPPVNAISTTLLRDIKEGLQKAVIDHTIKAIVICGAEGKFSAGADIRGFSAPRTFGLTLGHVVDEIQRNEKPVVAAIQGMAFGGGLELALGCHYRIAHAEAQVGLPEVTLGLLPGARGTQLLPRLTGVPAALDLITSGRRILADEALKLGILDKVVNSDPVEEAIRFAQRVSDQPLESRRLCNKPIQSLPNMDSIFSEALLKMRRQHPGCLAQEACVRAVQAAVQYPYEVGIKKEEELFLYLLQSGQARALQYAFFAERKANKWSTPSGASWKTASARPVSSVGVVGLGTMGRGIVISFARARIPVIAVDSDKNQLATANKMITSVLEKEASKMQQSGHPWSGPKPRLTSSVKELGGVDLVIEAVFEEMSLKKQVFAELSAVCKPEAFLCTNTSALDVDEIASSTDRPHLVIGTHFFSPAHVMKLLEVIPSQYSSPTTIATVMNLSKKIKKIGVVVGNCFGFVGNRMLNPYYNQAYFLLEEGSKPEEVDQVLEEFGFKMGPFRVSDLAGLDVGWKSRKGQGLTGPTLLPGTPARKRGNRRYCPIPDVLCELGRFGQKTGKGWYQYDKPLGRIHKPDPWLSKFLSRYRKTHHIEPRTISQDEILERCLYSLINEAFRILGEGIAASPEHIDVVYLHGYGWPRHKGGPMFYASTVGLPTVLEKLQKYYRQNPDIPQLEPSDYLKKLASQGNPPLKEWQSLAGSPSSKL
UniProt P47813, whole entry, looked up: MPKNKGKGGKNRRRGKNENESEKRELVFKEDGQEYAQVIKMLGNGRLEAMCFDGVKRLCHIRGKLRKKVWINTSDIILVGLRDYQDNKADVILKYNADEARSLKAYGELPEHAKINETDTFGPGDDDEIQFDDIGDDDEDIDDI
UniProt Q8TEA8: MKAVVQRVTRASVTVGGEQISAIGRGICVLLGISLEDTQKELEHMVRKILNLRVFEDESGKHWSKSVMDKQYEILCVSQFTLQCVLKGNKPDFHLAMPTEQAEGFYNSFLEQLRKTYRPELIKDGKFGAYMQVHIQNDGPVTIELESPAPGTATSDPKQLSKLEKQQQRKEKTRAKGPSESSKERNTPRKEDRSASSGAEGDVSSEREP
UniProt Q9BTV6: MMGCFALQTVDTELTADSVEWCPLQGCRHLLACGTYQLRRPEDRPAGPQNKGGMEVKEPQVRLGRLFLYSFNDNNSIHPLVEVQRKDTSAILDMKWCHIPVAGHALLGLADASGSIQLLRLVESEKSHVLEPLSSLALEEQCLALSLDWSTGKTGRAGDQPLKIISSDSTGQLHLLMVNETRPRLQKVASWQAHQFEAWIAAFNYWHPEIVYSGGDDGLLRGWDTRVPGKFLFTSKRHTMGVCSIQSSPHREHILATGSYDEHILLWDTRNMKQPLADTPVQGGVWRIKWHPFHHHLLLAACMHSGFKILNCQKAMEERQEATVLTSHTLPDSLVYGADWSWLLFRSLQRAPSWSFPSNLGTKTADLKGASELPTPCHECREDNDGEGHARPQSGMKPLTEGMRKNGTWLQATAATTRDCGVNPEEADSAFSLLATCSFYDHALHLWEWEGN
UniProt Q16254: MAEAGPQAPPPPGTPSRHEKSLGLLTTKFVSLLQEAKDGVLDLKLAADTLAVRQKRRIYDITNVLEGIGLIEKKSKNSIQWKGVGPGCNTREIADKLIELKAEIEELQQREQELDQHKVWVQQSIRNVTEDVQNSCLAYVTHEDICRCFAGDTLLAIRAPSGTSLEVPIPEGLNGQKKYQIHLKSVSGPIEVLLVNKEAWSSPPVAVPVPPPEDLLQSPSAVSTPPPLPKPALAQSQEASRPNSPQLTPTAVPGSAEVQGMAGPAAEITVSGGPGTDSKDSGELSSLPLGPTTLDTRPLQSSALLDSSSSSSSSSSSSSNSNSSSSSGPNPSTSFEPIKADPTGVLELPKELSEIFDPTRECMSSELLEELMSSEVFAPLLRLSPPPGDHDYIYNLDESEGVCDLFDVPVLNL
UniProt Q86TI2: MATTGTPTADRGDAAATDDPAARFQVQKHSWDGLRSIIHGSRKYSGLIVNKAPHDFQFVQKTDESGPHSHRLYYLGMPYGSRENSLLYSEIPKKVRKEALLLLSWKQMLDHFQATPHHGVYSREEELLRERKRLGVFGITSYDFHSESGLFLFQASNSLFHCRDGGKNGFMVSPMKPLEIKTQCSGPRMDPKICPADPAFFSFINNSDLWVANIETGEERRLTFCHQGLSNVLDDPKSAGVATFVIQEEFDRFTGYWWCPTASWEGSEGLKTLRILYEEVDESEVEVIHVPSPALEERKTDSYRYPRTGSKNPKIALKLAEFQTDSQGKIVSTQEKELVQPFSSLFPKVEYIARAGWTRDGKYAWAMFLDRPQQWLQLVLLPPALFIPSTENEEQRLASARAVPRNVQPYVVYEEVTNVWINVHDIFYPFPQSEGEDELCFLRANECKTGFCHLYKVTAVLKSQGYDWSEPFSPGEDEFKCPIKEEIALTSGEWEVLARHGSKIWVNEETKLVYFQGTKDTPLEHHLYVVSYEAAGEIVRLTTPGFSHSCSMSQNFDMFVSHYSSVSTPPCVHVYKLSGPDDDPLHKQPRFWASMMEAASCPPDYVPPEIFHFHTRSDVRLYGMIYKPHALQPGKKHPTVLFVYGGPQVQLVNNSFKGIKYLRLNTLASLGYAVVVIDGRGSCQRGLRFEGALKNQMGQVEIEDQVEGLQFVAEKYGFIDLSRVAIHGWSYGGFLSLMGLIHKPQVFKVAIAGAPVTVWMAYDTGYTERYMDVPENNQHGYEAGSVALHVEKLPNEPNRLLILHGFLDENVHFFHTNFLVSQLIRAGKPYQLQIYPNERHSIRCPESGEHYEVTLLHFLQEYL
UniProt O00559: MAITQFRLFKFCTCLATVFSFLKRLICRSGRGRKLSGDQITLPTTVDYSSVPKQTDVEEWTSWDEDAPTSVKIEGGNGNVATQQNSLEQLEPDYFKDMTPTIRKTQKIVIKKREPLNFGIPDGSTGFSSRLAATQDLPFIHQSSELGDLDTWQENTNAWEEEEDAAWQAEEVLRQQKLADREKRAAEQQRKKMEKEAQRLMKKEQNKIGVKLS
UniProt Q13011: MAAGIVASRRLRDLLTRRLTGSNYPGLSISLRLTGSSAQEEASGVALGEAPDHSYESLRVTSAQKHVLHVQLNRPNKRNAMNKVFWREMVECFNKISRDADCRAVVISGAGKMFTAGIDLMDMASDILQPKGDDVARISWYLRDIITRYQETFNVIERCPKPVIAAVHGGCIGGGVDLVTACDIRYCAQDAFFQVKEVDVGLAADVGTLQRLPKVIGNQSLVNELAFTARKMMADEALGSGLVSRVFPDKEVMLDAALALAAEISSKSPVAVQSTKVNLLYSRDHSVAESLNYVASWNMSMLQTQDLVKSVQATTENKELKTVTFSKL
UniProt Q92611: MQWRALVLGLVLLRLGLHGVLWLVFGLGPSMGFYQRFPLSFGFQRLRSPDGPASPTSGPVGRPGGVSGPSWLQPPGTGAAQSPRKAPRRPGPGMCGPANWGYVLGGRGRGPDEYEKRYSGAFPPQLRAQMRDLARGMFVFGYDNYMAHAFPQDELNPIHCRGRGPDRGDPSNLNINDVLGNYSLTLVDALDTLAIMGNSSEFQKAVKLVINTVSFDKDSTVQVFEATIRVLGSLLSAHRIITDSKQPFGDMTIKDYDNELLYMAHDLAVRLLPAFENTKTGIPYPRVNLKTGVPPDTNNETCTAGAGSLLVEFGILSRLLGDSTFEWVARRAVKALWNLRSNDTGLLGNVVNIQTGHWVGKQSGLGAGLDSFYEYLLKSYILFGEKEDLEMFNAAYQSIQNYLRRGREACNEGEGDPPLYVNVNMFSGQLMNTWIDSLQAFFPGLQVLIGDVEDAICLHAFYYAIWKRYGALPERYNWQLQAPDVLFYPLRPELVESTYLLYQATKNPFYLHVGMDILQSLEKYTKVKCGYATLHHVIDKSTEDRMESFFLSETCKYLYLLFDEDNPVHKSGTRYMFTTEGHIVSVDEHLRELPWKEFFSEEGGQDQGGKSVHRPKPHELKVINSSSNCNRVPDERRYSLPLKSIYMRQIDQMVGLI
UniProt Q9NY33: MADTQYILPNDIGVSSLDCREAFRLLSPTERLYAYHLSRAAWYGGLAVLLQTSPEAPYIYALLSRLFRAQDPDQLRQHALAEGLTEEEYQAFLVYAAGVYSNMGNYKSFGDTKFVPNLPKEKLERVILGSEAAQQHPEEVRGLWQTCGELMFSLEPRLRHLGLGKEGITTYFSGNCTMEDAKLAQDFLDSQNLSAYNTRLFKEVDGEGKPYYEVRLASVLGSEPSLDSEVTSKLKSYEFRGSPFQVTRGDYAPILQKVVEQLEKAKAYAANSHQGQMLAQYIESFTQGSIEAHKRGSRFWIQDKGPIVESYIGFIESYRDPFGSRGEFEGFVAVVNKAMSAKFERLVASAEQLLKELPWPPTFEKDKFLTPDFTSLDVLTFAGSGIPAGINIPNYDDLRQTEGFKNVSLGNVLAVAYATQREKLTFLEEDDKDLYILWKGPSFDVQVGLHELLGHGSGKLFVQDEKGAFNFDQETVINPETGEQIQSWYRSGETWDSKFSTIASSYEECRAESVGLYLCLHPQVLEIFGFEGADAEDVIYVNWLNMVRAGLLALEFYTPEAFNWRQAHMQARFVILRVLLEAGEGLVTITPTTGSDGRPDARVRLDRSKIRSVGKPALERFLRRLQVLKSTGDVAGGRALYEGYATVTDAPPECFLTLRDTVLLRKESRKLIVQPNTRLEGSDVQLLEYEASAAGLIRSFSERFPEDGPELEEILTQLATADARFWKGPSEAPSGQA
UniProt Q13409, whole entry, looked up: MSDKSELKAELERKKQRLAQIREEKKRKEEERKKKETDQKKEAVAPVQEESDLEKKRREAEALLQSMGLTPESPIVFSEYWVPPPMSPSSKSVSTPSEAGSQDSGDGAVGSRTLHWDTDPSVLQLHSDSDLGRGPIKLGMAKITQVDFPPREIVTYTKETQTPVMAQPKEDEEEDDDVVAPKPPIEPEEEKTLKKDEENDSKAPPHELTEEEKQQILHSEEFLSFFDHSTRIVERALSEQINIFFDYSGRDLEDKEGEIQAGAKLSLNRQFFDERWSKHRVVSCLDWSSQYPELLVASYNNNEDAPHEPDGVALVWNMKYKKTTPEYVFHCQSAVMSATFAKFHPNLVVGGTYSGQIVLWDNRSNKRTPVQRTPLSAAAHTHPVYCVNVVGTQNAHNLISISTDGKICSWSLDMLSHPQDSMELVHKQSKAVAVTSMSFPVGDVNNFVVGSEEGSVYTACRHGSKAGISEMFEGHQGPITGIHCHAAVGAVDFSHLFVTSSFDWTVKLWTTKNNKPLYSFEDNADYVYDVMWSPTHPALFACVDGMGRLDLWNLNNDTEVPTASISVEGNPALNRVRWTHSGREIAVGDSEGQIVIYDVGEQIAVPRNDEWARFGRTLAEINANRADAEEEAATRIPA
UniProt Q8WVE0: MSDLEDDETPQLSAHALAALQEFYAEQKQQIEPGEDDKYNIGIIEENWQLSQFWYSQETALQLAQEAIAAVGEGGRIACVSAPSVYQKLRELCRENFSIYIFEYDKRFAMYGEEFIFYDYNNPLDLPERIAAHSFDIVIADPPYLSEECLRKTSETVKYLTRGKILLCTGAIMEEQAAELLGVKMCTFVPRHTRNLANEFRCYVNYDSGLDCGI
UniProt Q9UNI6, whole entry, looked up: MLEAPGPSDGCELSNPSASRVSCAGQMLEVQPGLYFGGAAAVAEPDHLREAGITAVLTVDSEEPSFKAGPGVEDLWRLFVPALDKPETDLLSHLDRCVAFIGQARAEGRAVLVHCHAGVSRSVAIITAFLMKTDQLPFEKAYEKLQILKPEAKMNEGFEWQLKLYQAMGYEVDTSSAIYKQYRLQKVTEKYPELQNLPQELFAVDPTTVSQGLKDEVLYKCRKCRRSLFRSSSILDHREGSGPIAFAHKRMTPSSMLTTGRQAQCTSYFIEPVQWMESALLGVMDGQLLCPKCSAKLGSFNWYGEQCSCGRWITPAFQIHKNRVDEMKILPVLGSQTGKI
UniProt O95905: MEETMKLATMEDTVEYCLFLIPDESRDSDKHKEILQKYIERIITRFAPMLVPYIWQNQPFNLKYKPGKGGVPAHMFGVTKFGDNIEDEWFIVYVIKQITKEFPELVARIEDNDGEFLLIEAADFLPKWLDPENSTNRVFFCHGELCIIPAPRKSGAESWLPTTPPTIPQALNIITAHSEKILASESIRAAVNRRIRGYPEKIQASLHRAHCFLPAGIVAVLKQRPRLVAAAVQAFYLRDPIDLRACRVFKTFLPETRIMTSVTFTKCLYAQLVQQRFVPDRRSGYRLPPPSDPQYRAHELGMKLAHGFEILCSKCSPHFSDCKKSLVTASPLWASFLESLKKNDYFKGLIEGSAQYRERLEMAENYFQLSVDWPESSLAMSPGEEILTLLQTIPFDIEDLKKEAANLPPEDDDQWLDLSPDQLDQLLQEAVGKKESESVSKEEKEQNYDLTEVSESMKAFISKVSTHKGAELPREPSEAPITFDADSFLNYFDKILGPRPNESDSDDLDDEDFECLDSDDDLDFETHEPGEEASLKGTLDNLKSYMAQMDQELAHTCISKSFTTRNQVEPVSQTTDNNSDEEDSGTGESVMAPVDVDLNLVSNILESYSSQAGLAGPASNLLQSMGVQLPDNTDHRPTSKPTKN

Legend:
Assay in all cases: log2 fold change, soluble protein after heating vs DMSO (PISA); higher = thermal stabilisation; K562 lysate, 10 uM; active = over 0.2 and 3.5 SD of the protein, either way, in both replicates (recomputed)
[1] = compound: C=CC(=O)N1CCC[C@@H](n2nc(-c3ccc(Oc4ccccc4)cc3)c3c(N)ncnc32)C1 [ibrutinib]
Procedure, shortened: (§1)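 To prepare the extract, K562 pellets were dounce-homogenised in PBS pH 7.4 with 1 mM MgCl2, giving crude material at 1 mg/mL protein. This was treated with 10 μM compound for 30 min, then heated in aliquots for 3 min over 48°C-58°C before pooling and addition of NP-40 to 0.5% at 4°C. Centrifugation at 21,000xg for 90 min left soluble protein in the supernatant, which TMTpro 16plex LC-MS/MS quantified with equalised channel sums. Results are log-two fold changes in thermal stability compared with solvent controls, from duplicates.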

[2] = compound: CC(=O)c1cnc2ccc(-c3cc(Cl)c(O)c(Cl)c3)nc2c1N[C@H]1CC[C@H](CN(C)C)CC1
Procedure, shortened: as §1

[3] = compound: CC(C)(C)Cn1c(N)nc2ccc(-c3[nH]c(C(C)(C)C)nc3-c3ccc(F)cc3)nc21 [ralimetinib]
Procedure, shortened: as §1

[4] = compound: CC(C)(O)CC(=O)NCCn1ccc2ncnc(Nc3ccc(Oc4cccc(C(F)(F)F)c4)c(Cl)c3)c21
Procedure, shortened: as §1

[5] = compound: CC(C)C1=C2N=C(C=C(N2N=C1)NCC3=CC=CC=C3)NCCCCCCN
Procedure, shortened: as §1

[6] = compound: CC1=C(C(CC(=O)N1)C2=CC=C(C=C2)C(F)(F)F)C(=O)NC3=C(C=C4C(=C3)C=NN4)F
Procedure, shortened: as §1

[7] = compound: CC1=C(C2=C(C=C1)C(=O)C3=CC=CC=C3N2CCCN)C
Procedure, shortened: as §1

[8] = compound: CC1=C(C=C(C=C1)NC(=O)C2=CC(=CC=C2)C(C)(C)C#N)NC3=CC4=C(C=C3)N=CN(C4=O)C
Procedure, shortened: as §1

[9] = compound: CC1=C(C=C(C=C1)NC(=O)C2=CC(=CC=C2)N(C)C)NC(=O)C3=CC=C(C=C3)O
Procedure, shortened: as §1

[10] = compound: CC1=CC=C(C=C1)SC2=C3C=C(SC3=CN=C2)C(=O)N
Procedure, shortened: as §1

Measured: log2 fold change

ECSIT (UniProt Q9BQ95)
inactive: [1] -0.056 | [2] -0.017 | [3] 0.05 | [4] -0.083 | [5] 0.025 | [6] 0.01 | [7] -0.029 | [8] 0.063 | [9] -0.062 | [10] -0.017

EHHADH (UniProt Q08426)
inactive: [1] 0.059 | [2] -0.023 | [3] 0.021 | [4] -0.084 | [5] -0.016 | [6] -0.003 | [7] 0.128 | [8] -0.027 | [9] 0.031 | [10] 0.008

EIF1AX (UniProt P47813)
inactive: [1] -0.02 | [2] -0.034 | [3] 0.017 | [4] 0.05 | [5] -0.008 | [6] -0.013 | [7] 0.012 | [8] -0.019 | [9] -0.019 | [10] -0.016

ECHS1 (UniProt P30084)
inactive: [1] 0.019 | [2] 0.005 | [3] 0.017 | [4] 0.019 | [5] -0.025 | [6] -0.02 | [7] 0.022 | [8] -0.009 | [9] 0.015 | [10] 0.011

DTD1 (UniProt Q8TEA8)
inactive: [1] 0.028 | [2] 0.048 | [3] -0.013 | [4] 0 | [5] -0.043 | [6] -0.023 | [7] 0.028 | [8] -0.018 | [9] 0.011 | [10] -0.007

DPH7 (UniProt Q9BTV6)
inactive: [1] -0.002 | [2] 0.03 | [3] 0.048 | [4] -0.055 | [5] -0.043 | [6] -0.009 | [7] 0.031 | [8] 0.057 | [9] -0.012 | [10] -0.009

EHD4 (UniProt Q9H223)
inactive: [1] -0.021 | [2] -0.006 | [3] 0.036 | [4] 0.02 | [5] -0.03 | [6] 0.002 | [7] 0.017 | [8] -0.029 | [9] 0.008 | [10] 0.009

EHMT1 (UniProt Q9H9B1)
inactive: [1] 0.042 | [2] -0.007 | [3] 0.03 | [4] -0.03 | [5] 0.045 | [6] 0.001 | [7] -0.023 | [8] 0.032 | [9] 0.045 | [10] 0.024

E2F4 (UniProt Q16254)
inactive: [1] 0.025 | [2] -0.035 | [3] 0.01 | [4] 0.002 | [5] 0.018 | [6] 0.012 | [7] 0.005 | [8] 0.001 | [9] -0.025 | [10] -0.037

DPP9 isoform 2 (UniProt Q86TI2)
inactive: [1] 0.021 | [2] 0.005 | [3] 0.009 | [4] 0.016 | [5] 0.002 | [6] 0.005 | [7] -0.004 | [8] -0.045 | [9] 0 | [10] 0.025

DTYMK (UniProt P23919)
inactive: [1] 0.027 | [2] -0.018 | [3] 0.049 | [4] -0.015 | [5] 0.023 | [6] -0.035 | [7] -0.005 | [8] -0.017 | [9] 0.038 | [10] -0.002

EBAG9 isoform 2 (UniProt O00559)
inactive: [1] 0.025 | [2] 0.003 | [3] 0.102 | [4] -0.052 | [5] 0.04 | [6] -0.001 | [7] -0.096 | [8] -0.1 | [9] 0.067 | [10] -0.018

ECH1 (UniProt Q13011)
inactive: [1] -0.035 | [2] -0.02 | [3] 0.064 | [4] -0.036 | [5] -0.033 | [6] 0.04 | [7] -0.02 | [8] -0.017 | [9] -0.018 | [10] 0.013

EEF1A1P5 (UniProt Q5VTE0)
inactive: [1] -0.01 | [2] -0.007 | [3] 0.001 | [4] -0.014 | [5] 0.032 | [6] 0.008 | [7] 0.019 | [8] -0.006 | [9] 0.012 | [10] -0.011

DTWD1 (UniProt Q8N5C7)
inactive: [1] 0.013 | [2] 0.032 | [3] 0.005 | [4] 0.005 | [5] 0.034 | [6] 0.058 | [7] -0.019 | [8] 0 | [9] -0.02 | [10] -0.027

EFNB1 (UniProt P98172)
inactive: [1] 0.108 | [2] -0.008 | [3] 0.001 | [4] -0.007 | [5] 0.055 | [6] -0.095 | [7] 0.061 | [8] 0.006 | [9] 0 | [10] -0.03

Reprinted from the entries so far (7 entries):
EHD4 (UniProt Q9H223)
inactive: [1] -0.021 | [2] -0.006 | [3] 0.036 | [4] 0.02 | [5] -0.03 | [6] 0.002 | [7] 0.017 | [8] -0.029 | [9] 0.008 | [10] 0.009

EHMT1 (UniProt Q9H9B1)
inactive: [1] 0.042 | [2] -0.007 | [3] 0.03 | [4] -0.03 | [5] 0.045 | [6] 0.001 | [7] -0.023 | [8] 0.032 | [9] 0.045 | [10] 0.024

E2F4 (UniProt Q16254)
inactive: [1] 0.025 | [2] -0.035 | [3] 0.01 | [4] 0.002 | [5] 0.018 | [6] 0.012 | [7] 0.005 | [8] 0.001 | [9] -0.025 | [10] -0.037

DPP9 isoform 2 (UniProt Q86TI2)
inactive: [1] 0.021 | [2] 0.005 | [3] 0.009 | [4] 0.016 | [5] 0.002 | [6] 0.005 | [7] -0.004 | [8] -0.045 | [9] 0 | [10] 0.025

DTYMK (UniProt P23919)
inactive: [1] 0.027 | [2] -0.018 | [3] 0.049 | [4] -0.015 | [5] 0.023 | [6] -0.035 | [7] -0.005 | [8] -0.017 | [9] 0.038 | [10] -0.002

EBAG9 isoform 2 (UniProt O00559)
inactive: [1] 0.025 | [2] 0.003 | [3] 0.102 | [4] -0.052 | [5] 0.04 | [6] -0.001 | [7] -0.096 | [8] -0.1 | [9] 0.067 | [10] -0.018

ECH1 (UniProt Q13011)
inactive: [1] -0.035 | [2] -0.02 | [3] 0.064 | [4] -0.036 | [5] -0.033 | [6] 0.04 | [7] -0.02 | [8] -0.017 | [9] -0.018 | [10] 0.013

The results go on:

DYNC1H1 (UniProt Q14204)
inactive: [1] -0.012 | [2] -0.006 | [3] 0.015 | [4] 0.003 | [5] 0.002 | [6] 0.001 | [7] 0.017 | [8] -0.006 | [9] 0.031 | [10] 0.023

EIF2A (UniProt Q9BY44)
inactive: [1] 0.009 | [2] -0.017 | [3] -0.017 | [4] -0.018 | [5] 0.008 | [6] -0.016 | [7] -0.007 | [8] 0.037 | [9] 0.002 | [10] 0.012

DVL2 (UniProt O14641)
inactive: [1] -0.032 | [2] 0.085 | [3] 0.022 | [4] 0.032 | [5] -0.019 | [6] 0.028 | [7] -0.056 | [8] -0.072 | [9] 0.045 | [10] 0.11

EFHD1 (UniProt Q9BUP0)
inactive: [1] 0.015 | [2] -0.015 | [3] -0.026 | [4] -0.044 | [5] -0.04 | [6] -0.065 | [7] -0.022 | [8] 0.04 | [9] 0.015 | [10] -0.023

EDEM1 (UniProt Q92611)
inactive: [1] 0.025 | [2] 0.019 | [3] 0.081 | [4] -0.121 | [5] -0.074 | [6] -0.042 | [7] -0.032 | [8] 0.022 | [9] 0.115 | [10] 0.01

DPM3 isoform 2 (UniProt Q9P2X0)
inactive: [1] 0.014 | [2] 0.076 | [3] 0.008 | [4] -0.111 | [5] -0.056 | [6] -0.068 | [8] -0.125 | [9] 0.019 | [10] 0.105

DPP3 (UniProt Q9NY33)
inactive: [1] -0.006 | [2] 0.004 | [3] -0.011 | [4] 0.008 | [5] -0.015 | [6] -0.027 | [7] 0.015 | [8] -0.028 | [9] -0.006 | [10] 0.017

DYNC1I2 isoform 5 (UniProt Q13409)
inactive: [1] 0.022 | [2] -0.021 | [3] 0 | [4] -0.014 | [5] 0.004 | [6] 0.012 | [7] -0.007 | [8] -0.012 | [9] 0.008 | [10] -0.003

EEF1AKMT1 (UniProt Q8WVE0)
inactive: [1] 0.09 | [2] -0.162 | [3] 0.048 | [4] -0.079 | [5] 0.042 | [6] -0.068 | [7] -0.061 | [8] 0.067 | [9] 0.022 | [10] -0.067

EDEM3 (UniProt Q9BZQ6)
inactive: [1] -0.025 | [2] 0.011 | [3] 0.003 | [4] -0.024 | [5] -0.018 | [6] 0.037 | [7] 0.014 | [8] -0.002 | [9] 0.018 | [10] 0.004

DUSP12 (UniProt Q9UNI6)
inactive: [1] -0.008 | [2] -0.011 | [3] -0.016 | [4] -0.026 | [5] -0.012 | [6] -0.005 | [7] -0.004 | [8] 0.011 | [9] 0 | [10] 0.001

ECD isoform 3 (UniProt O95905)
inactive: [1] 0.049 | [2] -0.019 | [3] 0.043 | [4] 0.008 | [5] 0.019 | [6] 0.014 | [7] -0.006 | [8] -0.013 | [9] 0.034 | [10] -0.024

EEF1AKNMT (UniProt Q8N6R0)
inactive: [1] -0.016 | [2] 0.017 | [3] 0.096 | [4] 0.023 | [5] 0.017 | [6] -0.003 | [7] -0.024 | [8] 0.002 | [9] -0.021 | [10] 0.002
